Assay results: paper doi:10.1101/2025.04.28.650926 (bioRxiv, 2025)
Results are given in words; binding and its absence hold for the method and conditions named. Some results given as binding are weak or reduced against the parent protein; the word gives no strength.

Legend:
Details in all cases: remark: other sources report otherwise
[1] = target: T1, Heat shock factor 1, wild type (HSF1-WT) (human), Q00613; assay: native gel or EMSA
T1 chain: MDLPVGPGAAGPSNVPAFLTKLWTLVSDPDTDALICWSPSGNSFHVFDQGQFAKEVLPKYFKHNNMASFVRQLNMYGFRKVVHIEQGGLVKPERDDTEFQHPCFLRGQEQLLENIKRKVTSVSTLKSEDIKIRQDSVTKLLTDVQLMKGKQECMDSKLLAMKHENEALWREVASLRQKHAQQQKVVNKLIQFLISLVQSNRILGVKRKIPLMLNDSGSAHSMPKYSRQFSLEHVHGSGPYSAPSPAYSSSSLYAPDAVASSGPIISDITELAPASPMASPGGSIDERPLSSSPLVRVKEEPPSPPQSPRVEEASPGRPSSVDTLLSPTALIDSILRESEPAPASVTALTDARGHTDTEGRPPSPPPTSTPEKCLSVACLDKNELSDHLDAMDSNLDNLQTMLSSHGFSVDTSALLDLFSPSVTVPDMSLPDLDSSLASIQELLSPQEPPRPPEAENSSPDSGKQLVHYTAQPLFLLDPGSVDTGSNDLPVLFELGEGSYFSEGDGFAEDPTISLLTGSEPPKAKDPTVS

[2] = target: T1, Heat shock factor 1, wild type …; assay: dynamic light scattering
[3] = target: T1, Heat shock factor 1, wild type …; assay: native gel or EMSA

binding [1]: binds
binding [2]: binds
binding [3]: binds
B1: Heat shock factor 1, wild type (HSF1-WT), Q00613 1-529 (protein)
chain: MDLPVGPGAAGPSNVPAFLTKLWTLVSDPDTDALICWSPSGNSFHVFDQGQFAKEVLPKYFKHNNMASFVRQLNMYGFRKVVHIEQGGLVKPERDDTEFQHPCFLRGQEQLLENIKRKVTSVSTLKSEDIKIRQDSVTKLLTDVQLMKGKQECMDSKLLAMKHENEALWREVASLRQKHAQQQKVVNKLIQFLISLVQSNRILGVKRKIPLMLNDSGSAHSMPKYSRQFSLEHVHGSGPYSAPSPAYSSSSLYAPDAVASSGPIISDITELAPASPMASPGGSIDERPLSSSPLVRVKEEPPSPPQSPRVEEASPGRPSSVDTLLSPTALIDSILRESEPAPASVTALTDARGHTDTEGRPPSPPPTSTPEKCLSVACLDKNELSDHLDAMDSNLDNLQTMLSSHGFSVDTSALLDLFSPSVTVPDMSLPDLDSSLASIQELLSPQEPPRPPEAENSSPDSGKQLVHYTAQPLFLLDPGSVDTGSNDLPVLFELGEGSYFSEGDGFAEDPTISLLTGSEPPKAKDPTVS
